For the test, the target named is T1, Bombyx ultraspiracle USP1, CytoTrap two-hybrid fusion (Bombyx mori (silkworm)) (UniProt P49700).
T1 sequence: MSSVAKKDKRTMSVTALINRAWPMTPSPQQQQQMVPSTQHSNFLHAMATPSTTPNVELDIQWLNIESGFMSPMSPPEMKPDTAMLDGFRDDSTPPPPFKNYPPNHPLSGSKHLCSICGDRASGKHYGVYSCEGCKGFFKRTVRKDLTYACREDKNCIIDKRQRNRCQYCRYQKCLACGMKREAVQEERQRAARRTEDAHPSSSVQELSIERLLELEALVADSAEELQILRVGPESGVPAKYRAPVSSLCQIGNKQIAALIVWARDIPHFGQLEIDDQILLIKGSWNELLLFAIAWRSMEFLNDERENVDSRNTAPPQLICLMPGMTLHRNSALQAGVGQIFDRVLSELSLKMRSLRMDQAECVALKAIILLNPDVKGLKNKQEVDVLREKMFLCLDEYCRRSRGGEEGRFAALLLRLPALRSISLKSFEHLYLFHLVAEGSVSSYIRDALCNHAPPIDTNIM
In words: two-hybrid; CytoTrap system (Stratagene) in yeast cdc25H; bait fused to human Sos, prey fused to a myristoylation signal under the GAL1 promoter; growth at restrictive temperature on galactose medium; more colonies mean a stronger association.

These are yes or no findings as the source states them, for the method shown. Some results given as binding are weak or reduced against the parent protein; the word gives no strength. Sequences can lack the tags named with a protein.

Drawing on article PMC3531340, this text covers binding for one molecule.

B1: Bombyx ecdysone receptor EcR-B1, CytoTrap two-hybrid fusion (protein, UniProt P49881 1-606)
chain: MRVENVDNVSFALNGRADEWCMSVETRLDSLVREKSEVKAYVGGCPSVITDAGAYDALFDMRRRWSNNGGFPLRMLEESSSEVTSSSALGLPPAMVMSPESLASPEYRALELWSYDDGITYNTAQSLLGACNMQQQQLQPQQPHPAPPTLPTMPLPMPPTTPKSENESMSSGREELSPASSINGCSADADARRQKKGPAPRQQEELCLVCGDRASGYHYNALTCEGCKGFFRRSVTKNAVYICKFGHACEMDMYMRRKCQECRLKKCLAVGMRPECVIQEPSKNKDRQRQKKDKGILLPVSTTTVEDHMPPIMQCDPPPPEAARIHEVVPRYLSEKLMEQNRQKNIPPLSANQKSLIARLVWYQEGYEQPSDEDLKRVTQTWQSDEEDEESDLPFRQITEMTILTVQLIVEFAKGLPGFSKISQSDQITLLKASSSEVMMLRVARRYDAASDSVLFANNKAYTRDNYRQGGMAYVIEDLLHFCRCMFAMGMDNVHFALLTAIVIFSDRPGLEQPSLVEEIQRYYLNTLRIYIINQNSASSRCAVIYGRILSVLTELRTLGTQNSNMCISLKLKNRKLPPFLEEIWDVAEVATTHPTVLPPTNPVVL
In the case of B1, the binding result was “binds”.
